Results deposited as PubChem BioAssay AID1159578 (Peter MacCallum Cancer Centre, 2015).
The whole screen tested about 18,000 reagents; shown is a part drawn at random. Over the whole deposit, about 1,030 (5.7%) got an active call. 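Inactive calls also include pools with fewer than 3300 nuclei, whose migration was not assessed.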 The raw values are shown without normalisation. Entries without a mark were called inactive. Reagent sequences are not shown.

- Aim: 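Genome-wide hunt for genes controlling movement of lymphatic endothelial cells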 (primary screen)
- System: human lymphatic endothelial cells
- Reagent: siRNA pool against human genes, 40 nM
- Duration: 48 h after transfection
- Measurement: 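Cells stained with dye and imaged after a scratch; covered wound area and nuclei counted, duplicates averaged, migration set against mock wells and turned into a robust z-score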
- Scale: migration robust z-score: higher = faster migration into the scratch; migration relative to mock: higher = more scratch area covered than mock; nuclei per well: higher = more cells in the well
- Active means: 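Pools averaging fewer than 3300 nuclei are never called; remaining pools count as changed when migration robust z lies outside -2 to 2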
- Calls: active = migration changed; inactive = no migration change, or too few cells

| migration robust z-score | migration class with cell-count check | migration relative to mock | nuclei per well, duplicate mean | gene knocked down |
| --- | --- | --- | --- | --- |
| 0.16 | migration z between -2 and 2; enough cells | 0.92 | 6549 | SPINK14 |
| 0.36 | migration z between -2 and 2; enough cells | 0.88 | 5892 | AGO3 |
| 1.34 | migration z between -2 and 2; enough cells | 1.23 | 5666 | DPY19L2 |
| -0.99 | migration z between -2 and 2; enough cells | 0.63 | 4600 | CCIN |
| -0.59 | migration z between -2 and 2; enough cells | 0.74 | 5578 | DRC1 |
| -0.3 | migration z between -2 and 2; enough cells | 0.81 | 7778 | ANKRD46 |
| -1.39 | migration z between -2 and 2; enough cells | 0.52 | 4952 | ACAP3 |
| 0.42 | migration z between -2 and 2; enough cells | 0.88 | 5213 | ZNF45 |
| 0.5 | migration z between -2 and 2; enough cells | 0.9 | 6224 | AZIN2 |
| 0.05 | migration z between -2 and 2; enough cells | 0.82 | 4301 | MOS |
| -1.58 | migration z between -2 and 2; enough cells | 0.5 | 4286 | DGKK |
| 0.74 | migration z between -2 and 2; enough cells | 1.08 | 4930 | BOLA3 |
| -0.42 | migration z between -2 and 2; enough cells | 0.73 | 4195 | FOXD1 |
| 1.26 | migration z between -2 and 2; enough cells | 1.21 | 5796 | MIIP |
| -0.5 | migration z between -2 and 2; enough cells | 0.71 | 5113 | SCN1A |
| -1.43 | migration z between -2 and 2; enough cells | 0.53 | 4330 | ATF6 |
| -0.91 | migration z between -2 and 2; enough cells | 0.63 | 4987 | PPP1R1C |
| -0.58 | migration z between -2 and 2; enough cells | 0.74 | 4376 | LMAN1 |
| 0.06 | migration z between -2 and 2; enough cells | 0.82 | 6142 | ADCY2 |
| -3.81 | under 3300 nuclei; migration not judged | 0.07 | 2952 | MAPK1 |
| 0.32 | migration z between -2 and 2; enough cells | 0.97 | 5142 | H2AC17 |
| 0.16 | migration z between -2 and 2; enough cells | 0.92 | 5490 | OR8U1 |
| -1.96 | migration z between -2 and 2; enough cells | 0.38 | 4682 | PRDM8 |
| -1.66 | migration z between -2 and 2; enough cells | 0.45 | 5038 | FERD3L |

Single entries from above:
Entry of SPINK14 under “migration robust z-score”: 0.16
For “nuclei per well, duplicate mean”, MIIP is entered as 5796

Further reagents follow.
| migration robust z-score | migration class with cell-count check | migration relative to mock | nuclei per well, duplicate mean | gene knocked down |
| --- | --- | --- | --- | --- |
| 0.59 | migration z between -2 and 2; enough cells | 1.04 | 6536 | BTNL8 |
| 1.03 | migration z between -2 and 2; enough cells | 1.15 | 5788 | CNTN5 |
| -0.81 | migration z between -2 and 2; enough cells | 0.68 | 6422 | MYOG |
| -1.8 | migration z between -2 and 2; enough cells | 0.42 | 5707 | ANO8 |
| -3.19 (active) | migration z below -2; enough cells | 0.19 | 4218 | APOBEC3A |
| 0.42 | migration z between -2 and 2; enough cells | 0.88 | 5336 | KCNJ2 |
| -0.42 | migration z between -2 and 2; enough cells | 0.72 | 4205 | NUMB |
| 0.48 | migration z between -2 and 2; enough cells | 1.01 | 4544 | PRRG4 |
| -0.08 | migration z between -2 and 2; enough cells | 0.79 | 4045 | PPP1R12B |
| 1.04 | migration z between -2 and 2; enough cells | 1 | 3629 | KLB |
| -1.29 | migration z between -2 and 2; enough cells | 0.55 | 4665 | LINC01599 |
| -1.67 | migration z between -2 and 2; enough cells | 0.46 | 4346 | ZNF655 |
| 1.6 | migration z between -2 and 2; enough cells | 1.3 | 6784 | ARRDC1-AS1 |
| 0.18 | migration z between -2 and 2; enough cells | 0.84 | 4958 | SMPDL3B |
| 1.21 | migration z between -2 and 2; enough cells | 1.2 | 4244 | CCDC140 |
